# Experimental data published in the supplement of paper PMC8728848.
# The list shows a part of the results.
# Experiments:
# Assay in all cases: glycan array binding signal (z-score within array); higher = stronger binding
# Conditions in all cases: glycan notation: IUPAC condensed, linker removed
# [1] = target: Gal(b1-2)Gal
# Method in brief: (§1)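 Arrays were curated from the Consortium for Functional Glycomics database, 3228 in total, and kept only where the protein sequence was available. Binding is expressed as a within-array Z-score. This score was averaged across arrays of the same protein sequence at different concentrations or buffers and across linkers, and negative values can be read as non-binding.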
# [2] = target: Gal(b1-3)Gal
# Method in brief: as §1
# [3] = target: Gal(b1-3)Gal(b1-4)GlcNAc
# Method in brief: as §1
# [4] = target: Gal(b1-3)GalNAc
# Method in brief: as §1
# [5] = target: Gal(b1-3)GalNAc(a1-3)[Fuc(a1-2)]Gal(b1-4)Glc
# Method in brief: as §1
# [6] = target: Gal(b1-3)GalNAc(a1-3)[Fuc(a1-2)]Gal(b1-4)GlcNAc
# Method in brief: as §1
# [7] = target: Gal(b1-3)GalNAc(b1-3)Gal
# Method in brief: as §1
# [8] = target: Gal(b1-3)GalNAc(b1-3)Gal(a1-4)Gal(b1-4)Glc
# Method in brief: as §1
# [9] = target: Gal(b1-3)GalNAc(b1-4)Gal(b1-4)Glc
# Method in brief: as §1
# [10] = target: Gal(b1-3)GalNAc(b1-4)[Neu5Ac(a2-3)]Gal(b1-4)Glc
# Method in brief: as §1
# [11] = target: Gal(b1-3)GlcNAc
# Method in brief: as §1
# [12] = target: Gal(b1-3)GlcNAc(a1-3)Gal(b1-4)GlcNAc
# Method in brief: as §1
# [13] = target: Gal(b1-3)GlcNAc(a1-6)Gal(b1-4)GlcNAc
# Method in brief: as §1
# [14] = target: Gal(b1-3)GlcNAc(b1-2)Man
# Method in brief: as §1
# [15] = target: Gal(b1-3)GlcNAc(b1-2)Man(a1-3)[Gal(b1-3)GlcNAc(b1-2)Man(a1-6)]Man(b1-4)GlcNAc(b1-4)GlcNAc
# Method in brief: as §1
# [16] = target: Gal(b1-3)GlcNAc(b1-2)Man(a1-3)[Gal(b1-3)GlcNAc(b1-2)Man(a1-6)]Man(b1-4)GlcNAc(b1-4)[Fuc(a1-6)]GlcNAc
# Method in brief: as §1
# [17] = target: Gal(b1-3)GlcNAc(b1-2)Man(a1-3)[GlcNAc(b1-4)][Gal(b1-3)GlcNAc(b1-2)Man(a1-6)]Man(b1-4)GlcNAc(b1-4)GlcNAc
# Method in brief: as §1
# [18] = target: Gal(b1-3)GlcNAc(b1-2)[Gal(b1-3)GlcNAc(b1-6)]Man(a1-6)[Gal(b1-3)GlcNAc(b1-2)Man(a1-3)]Man(b1-4)GlcNAc(b1-4)GlcNAc
# Method in brief: as §1
# [19] = target: Gal(b1-3)GlcNAc(b1-3)Gal(b1-3)GlcNAc
# Method in brief: as §1
# [20] = target: Gal(b1-3)GlcNAc(b1-3)Gal(b1-4)Glc
# Method in brief: as §1
# [21] = target: Gal(b1-3)GlcNAc(b1-3)Gal(b1-4)GlcNAc
# Method in brief: as §1
# [22] = target: Gal(b1-3)GlcNAc(b1-3)Gal(b1-4)GlcNAc(b1-2)Man(a1-3)[Gal(b1-3)GlcNAc(b1-3)Gal(b1-4)GlcNAc(b1-2)Man(a1-6)]Man(b1-4)GlcNAc(b1-4)GlcNAc
# Method in brief: as §1
# [23] = target: Gal(b1-3)GlcNAc(b1-3)Gal(b1-4)GlcNAc(b1-2)[Gal(b1-3)GlcNAc(b1-3)Gal(b1-4)GlcNAc(b1-6)]Man(a1-6)[Gal(b1-3)GlcNAc(b1-3)Gal(b1-4)GlcNAc(b1-2)Man(a1-3)]Man(b1-4)GlcNAc(b1-4)[Fuc(a1-6)]GlcNAc
# Method in brief: as §1
# [24] = target: Gal(b1-3)GlcNAc(b1-3)Gal(b1-4)GlcNAc(b1-3)Gal(b1-4)GlcNAc(b1-2)[Gal(b1-3)GlcNAc(b1-3)Gal(b1-4)GlcNAc(b1-3)Gal(b1-4)GlcNAc(b1-6)]Man(a1-6)[Gal(b1-3)GlcNAc(b1-3)Gal(b1-4)GlcNAc(b1-3)Gal(b1-4)GlcNAc(b1-2)Man(a1-3)]Man(b1-4)GlcNAc(b1-4)[Fuc(a1-6)]GlcNAc
# Method in brief: as §1
# [25] = target: Gal(b1-3)GlcNAc(b1-3)Gal(b1-4)GlcNAc(b1-6)[Gal(b1-3)GlcNAc(b1-3)]Gal(b1-4)Glc
# Method in brief: as §1
# [26] = target: Gal(b1-3)GlcNAc(b1-3)Gal(b1-4)[Fuc(a1-3)]GlcNAc
# Method in brief: as §1
# [27] = target: Gal(b1-3)GlcNAc(b1-3)Gal(b1-4)[Fuc(a1-3)]GlcNAc(b1-6)[Gal(b1-3)GlcNAc(b1-3)]Gal(b1-4)Glc
# Method in brief: as §1
# [28] = target: Gal(b1-3)GlcNAc(b1-3)GalNAc
# Method in brief: as §1
# [29] = target: Gal(b1-3)GlcNAc(b1-6)Gal(b1-4)GlcNAc
# Method in brief: as §1
# [30] = target: Gal(b1-3)GlcNAc(b1-6)GalNAc
# Method in brief: as §1
# [31] = target: Gal(b1-3)GlcNAc(b1-6)[Gal(b1-3)]GalNAc
# Method in brief: as §1
# [32] = target: Gal(b1-3)GlcNAc6S
# Method in brief: as §1
# [33] = target: Gal(b1-3)[Fuc(a1-4)]GlcNAc
# Method in brief: as §1
# [34] = target: Gal(b1-3)[Fuc(a1-4)]GlcNAc(b1-2)Man
# Method in brief: as §1
# [35] = target: Gal(b1-3)[Fuc(a1-4)]GlcNAc(b1-2)Man(a1-3)[Gal(b1-3)[Fuc(a1-4)]GlcNAc(b1-2)Man(a1-6)]Man(b1-4)GlcNAc(b1-4)[Fuc(a1-6)]GlcNAc
# Method in brief: as §1
# [36] = target: Gal(b1-3)[Fuc(a1-4)]GlcNAc(b1-3)Gal(b1-3)[Fuc(a1-4)]GlcNAc
# Method in brief: as §1
# [37] = target: Gal(b1-3)[Fuc(a1-4)]GlcNAc(b1-3)Gal(b1-4)[Fuc(a1-3)]GlcNAc
# Method in brief: as §1
binder,measurement,setting,value
Gs78B-bfa-542-29-542 (Bacteroides fragilis) (protein) SEDINRNPLLPTKEDEKMDGVIYGAYLPNLEKSVIPIGTASESTEPVNRYQIGVNLAGDAWAGYMSPRDNKFNGSKNFTNYFMYENWVNYVYSFMVTDVYSPWMQIKRISQDEGTRNDEIYALAQIIKIAALHRTTDMFGPIPYSQVGKGSFKVAYDSQESVYRSFLKELEEAVQTLDDYSNKSKEVLPAFDIVYNGDVNKWMRFANSLMLRLAIRVRFADAGLAKEYAEKAVKHPAGLINSKELAAQMGKGAGLQMKNPLKVINEEYNDTRMGATIYSYLAGYNDARAAVYFVKNNGFKAVRCGIAKSGDAYNGFTRPNVHEDDPLYWMKASEVCFLKAEGALAGFDMGGSAGDFYNAGIRMSFSENGLDNSSAETYLKDSTRKPANYTDTSNGELSANAPSSITIRWENGATEEEKLERIITQKYLAIFPNGQEAWTEWRRTGYPRQIVVAENKTNSAVLIGNGYDLGGVRRLPYPRTEYEQNGENLHNAISQYLGGVDNAATKVWWDKKSK,glycan array binding signal (z-score),[1],-0.774
same,glycan array binding signal (z-score),[2],0.161
same,glycan array binding signal (z-score),[3],1.69
same,glycan array binding signal (z-score),[4],-0.151
same,glycan array binding signal (z-score),[5],0.1
same,glycan array binding signal (z-score),[6],1.54
same,glycan array binding signal (z-score),[7],-0.712
same,glycan array binding signal (z-score),[8],0.448
same,glycan array binding signal (z-score),[9],-0.176
same,glycan array binding signal (z-score),[10],1.7
same,glycan array binding signal (z-score),[11],-0.119
same,glycan array binding signal (z-score),[12],-0.178
same,glycan array binding signal (z-score),[13],1.13
same,glycan array binding signal (z-score),[14],1.37
same,glycan array binding signal (z-score),[15],-0.165
same,glycan array binding signal (z-score),[16],1.53
same,glycan array binding signal (z-score),[17],1.85
same,glycan array binding signal (z-score),[18],-0.471
same,glycan array binding signal (z-score),[19],1.03
same,glycan array binding signal (z-score),[20],-0.698
same,glycan array binding signal (z-score),[21],-0.266
same,glycan array binding signal (z-score),[22],-0.404
same,glycan array binding signal (z-score),[23],0.613
same,glycan array binding signal (z-score),[24],0.392
same,glycan array binding signal (z-score),[25],-0.123
same,glycan array binding signal (z-score),[26],0.623
same,glycan array binding signal (z-score),[27],-0.25
same,glycan array binding signal (z-score),[28],1.2
same,glycan array binding signal (z-score),[29],-0.54
same,glycan array binding signal (z-score),[30],-0.286
same,glycan array binding signal (z-score),[31],1.47
same,glycan array binding signal (z-score),[32],2.8
same,glycan array binding signal (z-score),[33],-0.728
same,glycan array binding signal (z-score),[34],-0.693
same,glycan array binding signal (z-score),[35],0.989
same,glycan array binding signal (z-score),[36],-0.682
same,glycan array binding signal (z-score),[37],-0.845
